Test results as given in article PMC8357957.

Sequences of proteins named here, by UniProt entry; tags and fusion partners are left off.
UniProt P40201: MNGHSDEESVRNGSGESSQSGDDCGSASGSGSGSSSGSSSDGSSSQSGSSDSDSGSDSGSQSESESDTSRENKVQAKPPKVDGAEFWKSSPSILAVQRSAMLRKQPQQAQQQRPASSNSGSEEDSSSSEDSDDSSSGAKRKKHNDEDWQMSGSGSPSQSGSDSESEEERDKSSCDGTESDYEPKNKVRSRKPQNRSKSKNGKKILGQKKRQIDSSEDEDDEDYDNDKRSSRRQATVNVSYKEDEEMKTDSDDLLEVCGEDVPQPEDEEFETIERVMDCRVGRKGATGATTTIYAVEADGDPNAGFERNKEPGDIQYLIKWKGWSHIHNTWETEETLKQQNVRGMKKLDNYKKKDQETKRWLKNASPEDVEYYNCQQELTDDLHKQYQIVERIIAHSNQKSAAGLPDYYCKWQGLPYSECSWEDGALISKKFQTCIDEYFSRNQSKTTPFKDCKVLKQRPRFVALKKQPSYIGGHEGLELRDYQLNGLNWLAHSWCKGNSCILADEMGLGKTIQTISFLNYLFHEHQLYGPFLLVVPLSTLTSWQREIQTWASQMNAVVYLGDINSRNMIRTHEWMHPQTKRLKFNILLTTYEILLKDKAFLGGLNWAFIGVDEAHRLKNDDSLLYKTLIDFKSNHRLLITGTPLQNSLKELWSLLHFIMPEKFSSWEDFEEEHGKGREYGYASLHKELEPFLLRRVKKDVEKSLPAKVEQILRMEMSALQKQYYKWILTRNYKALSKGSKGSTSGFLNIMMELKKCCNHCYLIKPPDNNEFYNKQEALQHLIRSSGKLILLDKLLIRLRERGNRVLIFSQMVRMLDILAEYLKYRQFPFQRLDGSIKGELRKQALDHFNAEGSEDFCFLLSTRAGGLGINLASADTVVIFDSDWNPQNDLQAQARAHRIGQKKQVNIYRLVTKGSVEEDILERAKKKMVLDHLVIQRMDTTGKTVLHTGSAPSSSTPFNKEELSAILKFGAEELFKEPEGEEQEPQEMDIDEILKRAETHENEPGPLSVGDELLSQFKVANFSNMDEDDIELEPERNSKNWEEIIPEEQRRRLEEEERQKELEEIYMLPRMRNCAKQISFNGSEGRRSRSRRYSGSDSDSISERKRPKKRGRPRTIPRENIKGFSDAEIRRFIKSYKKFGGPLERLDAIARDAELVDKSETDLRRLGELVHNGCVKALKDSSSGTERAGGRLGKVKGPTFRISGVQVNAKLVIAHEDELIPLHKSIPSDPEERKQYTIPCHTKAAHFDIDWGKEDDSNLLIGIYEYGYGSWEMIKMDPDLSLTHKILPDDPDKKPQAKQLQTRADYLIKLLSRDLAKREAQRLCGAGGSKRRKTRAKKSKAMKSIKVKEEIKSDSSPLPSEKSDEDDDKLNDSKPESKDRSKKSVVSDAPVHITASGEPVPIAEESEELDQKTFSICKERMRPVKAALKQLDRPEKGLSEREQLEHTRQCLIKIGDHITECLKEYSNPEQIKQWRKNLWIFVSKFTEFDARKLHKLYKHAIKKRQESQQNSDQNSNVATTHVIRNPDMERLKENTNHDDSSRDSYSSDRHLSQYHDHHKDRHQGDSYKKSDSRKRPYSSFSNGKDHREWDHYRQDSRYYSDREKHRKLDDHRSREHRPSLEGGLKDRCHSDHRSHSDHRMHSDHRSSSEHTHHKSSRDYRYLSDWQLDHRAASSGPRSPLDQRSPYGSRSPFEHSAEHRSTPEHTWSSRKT
UniProt A2A654: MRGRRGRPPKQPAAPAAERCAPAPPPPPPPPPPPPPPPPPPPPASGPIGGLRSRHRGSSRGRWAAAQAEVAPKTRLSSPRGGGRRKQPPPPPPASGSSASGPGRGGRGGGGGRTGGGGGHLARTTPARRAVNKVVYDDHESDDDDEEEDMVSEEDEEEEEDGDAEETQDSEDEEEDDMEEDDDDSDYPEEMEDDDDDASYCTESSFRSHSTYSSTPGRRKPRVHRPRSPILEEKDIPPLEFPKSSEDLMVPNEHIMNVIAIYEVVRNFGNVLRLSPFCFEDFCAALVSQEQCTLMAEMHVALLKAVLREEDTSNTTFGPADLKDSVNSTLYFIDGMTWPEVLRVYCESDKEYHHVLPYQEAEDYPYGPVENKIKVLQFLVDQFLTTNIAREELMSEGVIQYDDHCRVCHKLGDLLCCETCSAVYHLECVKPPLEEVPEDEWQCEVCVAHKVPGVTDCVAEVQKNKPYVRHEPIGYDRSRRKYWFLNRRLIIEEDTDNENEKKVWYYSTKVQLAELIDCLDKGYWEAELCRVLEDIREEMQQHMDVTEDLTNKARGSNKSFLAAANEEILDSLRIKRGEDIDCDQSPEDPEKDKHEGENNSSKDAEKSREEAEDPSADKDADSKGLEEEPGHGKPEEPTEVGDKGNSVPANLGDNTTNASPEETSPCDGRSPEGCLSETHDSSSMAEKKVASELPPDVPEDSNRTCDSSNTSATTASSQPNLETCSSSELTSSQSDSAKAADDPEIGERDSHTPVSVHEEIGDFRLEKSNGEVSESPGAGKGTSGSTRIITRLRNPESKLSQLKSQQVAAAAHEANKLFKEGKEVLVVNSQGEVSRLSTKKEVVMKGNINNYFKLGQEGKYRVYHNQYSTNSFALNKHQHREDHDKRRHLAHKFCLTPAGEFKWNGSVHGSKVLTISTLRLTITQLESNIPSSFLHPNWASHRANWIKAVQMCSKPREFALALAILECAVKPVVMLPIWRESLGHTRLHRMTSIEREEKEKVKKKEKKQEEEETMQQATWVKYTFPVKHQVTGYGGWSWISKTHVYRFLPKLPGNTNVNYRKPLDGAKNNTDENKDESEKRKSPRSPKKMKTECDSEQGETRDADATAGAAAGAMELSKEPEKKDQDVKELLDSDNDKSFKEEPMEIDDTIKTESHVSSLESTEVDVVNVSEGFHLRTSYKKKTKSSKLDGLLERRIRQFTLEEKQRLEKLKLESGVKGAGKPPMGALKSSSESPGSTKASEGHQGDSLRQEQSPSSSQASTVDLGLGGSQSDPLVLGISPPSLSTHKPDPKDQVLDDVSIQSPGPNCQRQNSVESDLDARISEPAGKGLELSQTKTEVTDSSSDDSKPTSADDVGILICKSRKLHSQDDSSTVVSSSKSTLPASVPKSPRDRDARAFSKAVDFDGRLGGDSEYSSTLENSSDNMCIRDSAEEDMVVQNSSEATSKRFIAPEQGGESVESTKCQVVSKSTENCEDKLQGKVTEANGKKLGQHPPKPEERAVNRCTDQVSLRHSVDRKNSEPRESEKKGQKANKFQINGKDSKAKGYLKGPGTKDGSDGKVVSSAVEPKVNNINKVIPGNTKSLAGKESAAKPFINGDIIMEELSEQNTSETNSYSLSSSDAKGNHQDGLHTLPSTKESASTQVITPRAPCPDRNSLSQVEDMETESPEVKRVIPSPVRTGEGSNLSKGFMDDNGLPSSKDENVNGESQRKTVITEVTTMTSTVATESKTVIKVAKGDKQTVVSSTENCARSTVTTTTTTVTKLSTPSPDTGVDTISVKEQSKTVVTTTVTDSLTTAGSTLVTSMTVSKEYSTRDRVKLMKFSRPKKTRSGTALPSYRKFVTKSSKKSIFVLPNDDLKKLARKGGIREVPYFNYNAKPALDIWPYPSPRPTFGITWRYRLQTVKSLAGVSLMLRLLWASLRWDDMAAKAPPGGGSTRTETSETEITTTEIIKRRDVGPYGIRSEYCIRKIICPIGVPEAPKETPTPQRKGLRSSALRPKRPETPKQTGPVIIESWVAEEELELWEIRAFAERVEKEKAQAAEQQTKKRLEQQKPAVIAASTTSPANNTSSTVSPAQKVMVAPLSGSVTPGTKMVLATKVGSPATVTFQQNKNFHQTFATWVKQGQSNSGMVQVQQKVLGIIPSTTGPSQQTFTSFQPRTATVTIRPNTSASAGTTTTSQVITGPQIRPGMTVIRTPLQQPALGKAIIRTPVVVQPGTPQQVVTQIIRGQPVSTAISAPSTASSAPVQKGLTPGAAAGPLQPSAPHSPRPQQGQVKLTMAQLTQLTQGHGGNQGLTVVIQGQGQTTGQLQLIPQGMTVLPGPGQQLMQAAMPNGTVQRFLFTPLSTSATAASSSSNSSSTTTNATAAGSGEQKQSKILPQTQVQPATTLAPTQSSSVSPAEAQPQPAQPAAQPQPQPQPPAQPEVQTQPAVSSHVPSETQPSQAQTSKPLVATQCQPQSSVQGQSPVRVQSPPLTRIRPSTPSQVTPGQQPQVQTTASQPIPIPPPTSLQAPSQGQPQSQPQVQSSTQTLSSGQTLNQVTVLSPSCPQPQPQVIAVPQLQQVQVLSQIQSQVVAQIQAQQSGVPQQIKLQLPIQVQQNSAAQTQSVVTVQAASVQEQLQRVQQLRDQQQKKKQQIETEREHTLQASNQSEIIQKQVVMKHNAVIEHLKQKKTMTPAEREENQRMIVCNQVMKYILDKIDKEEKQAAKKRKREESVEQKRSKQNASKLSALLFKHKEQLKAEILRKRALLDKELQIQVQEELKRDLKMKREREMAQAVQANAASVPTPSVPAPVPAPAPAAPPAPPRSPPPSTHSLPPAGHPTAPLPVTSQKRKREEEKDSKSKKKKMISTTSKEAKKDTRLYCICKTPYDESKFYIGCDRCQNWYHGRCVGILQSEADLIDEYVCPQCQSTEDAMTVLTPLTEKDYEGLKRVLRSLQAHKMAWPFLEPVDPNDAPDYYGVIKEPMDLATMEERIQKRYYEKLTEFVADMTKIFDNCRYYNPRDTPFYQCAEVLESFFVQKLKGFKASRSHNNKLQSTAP
UniProt Q64511: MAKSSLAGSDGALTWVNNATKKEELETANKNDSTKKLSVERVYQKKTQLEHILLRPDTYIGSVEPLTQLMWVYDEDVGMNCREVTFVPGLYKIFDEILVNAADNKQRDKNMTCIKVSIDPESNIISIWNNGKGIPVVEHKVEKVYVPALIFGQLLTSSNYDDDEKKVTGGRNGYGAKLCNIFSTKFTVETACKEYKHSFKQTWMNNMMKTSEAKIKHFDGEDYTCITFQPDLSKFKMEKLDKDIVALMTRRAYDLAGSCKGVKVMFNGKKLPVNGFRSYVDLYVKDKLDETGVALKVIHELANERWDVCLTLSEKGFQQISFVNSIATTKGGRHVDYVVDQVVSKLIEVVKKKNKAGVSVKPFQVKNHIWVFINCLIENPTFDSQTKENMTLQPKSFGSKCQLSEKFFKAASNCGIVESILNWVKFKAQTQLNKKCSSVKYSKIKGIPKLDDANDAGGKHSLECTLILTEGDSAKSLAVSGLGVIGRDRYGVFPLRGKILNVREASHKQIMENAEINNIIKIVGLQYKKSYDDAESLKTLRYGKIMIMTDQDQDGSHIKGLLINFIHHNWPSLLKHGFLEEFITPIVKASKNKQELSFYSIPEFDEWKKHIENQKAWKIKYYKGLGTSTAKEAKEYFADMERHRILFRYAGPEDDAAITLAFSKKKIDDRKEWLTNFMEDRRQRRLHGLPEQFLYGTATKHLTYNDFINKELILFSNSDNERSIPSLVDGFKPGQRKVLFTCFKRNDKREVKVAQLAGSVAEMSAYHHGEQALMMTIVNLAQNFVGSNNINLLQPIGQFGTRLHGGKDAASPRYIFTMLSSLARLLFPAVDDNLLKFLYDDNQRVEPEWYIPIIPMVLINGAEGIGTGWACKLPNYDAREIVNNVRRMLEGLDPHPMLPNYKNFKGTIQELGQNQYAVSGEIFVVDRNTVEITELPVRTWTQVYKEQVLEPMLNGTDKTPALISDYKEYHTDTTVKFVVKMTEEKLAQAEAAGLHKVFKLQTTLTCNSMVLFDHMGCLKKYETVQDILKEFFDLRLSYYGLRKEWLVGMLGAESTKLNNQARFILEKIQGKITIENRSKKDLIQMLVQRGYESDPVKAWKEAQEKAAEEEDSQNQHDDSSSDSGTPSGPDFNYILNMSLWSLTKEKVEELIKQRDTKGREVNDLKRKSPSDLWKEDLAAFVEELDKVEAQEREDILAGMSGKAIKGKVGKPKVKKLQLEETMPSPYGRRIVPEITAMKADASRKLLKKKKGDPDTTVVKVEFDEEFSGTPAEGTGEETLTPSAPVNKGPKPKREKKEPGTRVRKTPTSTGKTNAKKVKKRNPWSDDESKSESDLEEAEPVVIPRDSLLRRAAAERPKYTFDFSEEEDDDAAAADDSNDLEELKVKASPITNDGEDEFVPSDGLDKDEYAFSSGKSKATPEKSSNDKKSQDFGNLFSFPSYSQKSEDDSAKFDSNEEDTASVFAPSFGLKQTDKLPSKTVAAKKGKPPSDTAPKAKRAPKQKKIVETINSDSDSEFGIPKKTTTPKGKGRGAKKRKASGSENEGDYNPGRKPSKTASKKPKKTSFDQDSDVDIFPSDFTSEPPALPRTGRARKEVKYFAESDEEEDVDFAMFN

B1: MRN complex member Mre11 (protein, UniProt Q61216 1-706)
chain: MSPTDPLDDEDTFKILVATDIHLGFMEKDAVRGNDTFVTFDEILRLALENEVDFILLGGDLFHENKPSRKTLHSCLELLRKYCMGDRPVQFEVISDQSVNFGFSKFPWVNYQDGNLNISIPVFSIHGNHDDPTGADALCALDVLSCAGFVNHFGRSMSVEKVDISPVLLQKGSTKLALYGLGSIPDERLYRMFVNKKVTMLRPKEDENSWFNLFVIHQNRSKHGNTNFIPEQFLDDFIDLVIWGHEHECKIGPIKNEQQLFYVSQPGSSVVTSLSPGEAVKKHVGLLRIKGRKMNMQKLPLRTVRRFFIEDVVLANHPNLFNPDNPKVTQAIQSFCLEKIEEMLDSAERERLGNPQQPGKPLIRLRVDYSGGFEPFNVLRFSQKFVDRVANPKDVIHFFRHREQKGKTGEEINFGMLITKPASEGATLRVEDLVKQYFQTAEKNVQLSLLTERGMGEAVQEFVDKEEKDAIEELVKYQLEKTQRFLKERHIDALEDKIDEEVRRFRESRQRNTNEEDDEVREAMSRARALRSQSETSTSAFSAEDLSFDTSEQTANDSDDSLSAVPSRGRGRGRGRRGARGQSSAPRGGSQRGRDTGLEITTRGRSSKATSSTSRNMSIIDAFRSTRQQPSRNVAPKNYSETIEVDDSDEDDIFPTNSRADQRWSGTTSSKRMSQSQTAKGVDFESDEDDDDDPFMSSSCPRRNRR

molecular target: Chd1-Flag (from the Chd1-Flag knock-in mouse ES cell line) (mouse) (UniProt P40201); assay: affinity purification with mass spectrometry; Flag IP from nuclear extract of Chd1-Flag knock-in mouse ES cells at 150 mM salt; IgG IP as negative control; gel slices, trypsin, LC-MS/MS

binding, binds:
Bptf (from UniProt A2A654 1-3036)
Ssrp1 (from UniProt Q08943 1-708)
histone variant H2A.X (from UniProt P27661 1-143)
topoisomerase 2β (Top2β) (from UniProt Q64511 1-1612) (enzyme)
B1

Results are given in words; binding and its absence hold for the method and conditions named. In cells and extracts the contact can be indirect. A yes stands for co-enrichment or nearness to the bait. Other partners may have been found.
